Measurements from publication doi:10.1101/2020.04.02.021998.
Results are given in words; binding and its absence hold for the method and conditions named.

Biological target: Arabidopsis NOT4A E3 ubiquitin ligase (Arabidopsis thaliana)
Assay: two-hybrid

B1: PROTON GRADIENT REGULATED 3 (PGR3), pentatricopeptide repeat protein (protein, UniProt Q9SZ52 1-1112)
chain: MVALLCSASLCGDISVGDACLVSNIKAKCRDNLVTGGLKFHALKIGSRKKHWRRKSMRCSVVSMKSSDFSGSMIRKSSKPDLSSSEEVTRGLKSFPDTDSSFSYFKSVAGNLNLVHTTETCNYMLEALRVDGKLEEMAYVFDLMQKRIIKRDTNTYLTIFKSLSVKGGLKQAPYALRKMREFGFVLNAYSYNGLIHLLLKSRFCTEAMEVYRRMILEGFRPSLQTYSSLMVGLGKRRDIDSVMGLLKEMETLGLKPNVYTFTICIRVLGRAGKINEAYEILKRMDDEGCGPDVVTYTVLIDALCTARKLDCAKEVFEKMKTGRHKPDRVTYITLLDRFSDNRDLDSVKQFWSEMEKDGHVPDVVTFTILVDALCKAGNFGEAFDTLDVMRDQGILPNLHTYNTLICGLLRVHRLDDALELFGNMESLGVKPTAYTYIVFIDYYGKSGDSVSALETFEKMKTKGIAPNIVACNASLYSLAKAGRDREAKQIFYGLKDIGLVPDSVTYNMMMKCYSKVGEIDEAIKLLSEMMENGCEPDVIVVNSLINTLYKADRVDEAWKMFMRMKEMKLKPTVVTYNTLLAGLGKNGKIQEAIELFEGMVQKGCPPNTITFNTLFDCLCKNDEVTLALKMLFKMMDMGCVPDVFTYNTIIFGLVKNGQVKEAMCFFHQMKKLVYPDFVTLCTLLPGVVKASLIEDAYKIITNFLYNCADQPANLFWEDLIGSILAEAGIDNAVSFSERLVANGICRDGDSILVPIIRYSCKHNNVSGARTLFEKFTKDLGVQPKLPTYNLLIGGLLEADMIEIAQDVFLQVKSTGCIPDVATYNFLLDAYGKSGKIDELFELYKEMSTHECEANTITHNIVISGLVKAGNVDDALDLYYDLMSDRDFSPTACTYGPLIDGLSKSGRLYEAKQLFEGMLDYGCRPNCAIYNILINGFGKAGEADAACALFKRMVKEGVRPDLKTYSVLVDCLCMVGRVDEGLHYFKELKESGLNPDVVCYNLIINGLGKSHRLEEALVLFNEMKTSRGITPDLYTYNSLILNLGIAGMVEEAGKIYNEIQRAGLEPNVFTFNALIRGYSLSGKPEHAYAVYQTMVTGGFSPNTGTYEQLPNRA
With B1 the binding was “no binding”.
